Laboratory results from paper doi:10.1101/2024.07.03.601239.

The chains behind the UniProt entries cited, without tags or fusion partners.
UniProt O94913: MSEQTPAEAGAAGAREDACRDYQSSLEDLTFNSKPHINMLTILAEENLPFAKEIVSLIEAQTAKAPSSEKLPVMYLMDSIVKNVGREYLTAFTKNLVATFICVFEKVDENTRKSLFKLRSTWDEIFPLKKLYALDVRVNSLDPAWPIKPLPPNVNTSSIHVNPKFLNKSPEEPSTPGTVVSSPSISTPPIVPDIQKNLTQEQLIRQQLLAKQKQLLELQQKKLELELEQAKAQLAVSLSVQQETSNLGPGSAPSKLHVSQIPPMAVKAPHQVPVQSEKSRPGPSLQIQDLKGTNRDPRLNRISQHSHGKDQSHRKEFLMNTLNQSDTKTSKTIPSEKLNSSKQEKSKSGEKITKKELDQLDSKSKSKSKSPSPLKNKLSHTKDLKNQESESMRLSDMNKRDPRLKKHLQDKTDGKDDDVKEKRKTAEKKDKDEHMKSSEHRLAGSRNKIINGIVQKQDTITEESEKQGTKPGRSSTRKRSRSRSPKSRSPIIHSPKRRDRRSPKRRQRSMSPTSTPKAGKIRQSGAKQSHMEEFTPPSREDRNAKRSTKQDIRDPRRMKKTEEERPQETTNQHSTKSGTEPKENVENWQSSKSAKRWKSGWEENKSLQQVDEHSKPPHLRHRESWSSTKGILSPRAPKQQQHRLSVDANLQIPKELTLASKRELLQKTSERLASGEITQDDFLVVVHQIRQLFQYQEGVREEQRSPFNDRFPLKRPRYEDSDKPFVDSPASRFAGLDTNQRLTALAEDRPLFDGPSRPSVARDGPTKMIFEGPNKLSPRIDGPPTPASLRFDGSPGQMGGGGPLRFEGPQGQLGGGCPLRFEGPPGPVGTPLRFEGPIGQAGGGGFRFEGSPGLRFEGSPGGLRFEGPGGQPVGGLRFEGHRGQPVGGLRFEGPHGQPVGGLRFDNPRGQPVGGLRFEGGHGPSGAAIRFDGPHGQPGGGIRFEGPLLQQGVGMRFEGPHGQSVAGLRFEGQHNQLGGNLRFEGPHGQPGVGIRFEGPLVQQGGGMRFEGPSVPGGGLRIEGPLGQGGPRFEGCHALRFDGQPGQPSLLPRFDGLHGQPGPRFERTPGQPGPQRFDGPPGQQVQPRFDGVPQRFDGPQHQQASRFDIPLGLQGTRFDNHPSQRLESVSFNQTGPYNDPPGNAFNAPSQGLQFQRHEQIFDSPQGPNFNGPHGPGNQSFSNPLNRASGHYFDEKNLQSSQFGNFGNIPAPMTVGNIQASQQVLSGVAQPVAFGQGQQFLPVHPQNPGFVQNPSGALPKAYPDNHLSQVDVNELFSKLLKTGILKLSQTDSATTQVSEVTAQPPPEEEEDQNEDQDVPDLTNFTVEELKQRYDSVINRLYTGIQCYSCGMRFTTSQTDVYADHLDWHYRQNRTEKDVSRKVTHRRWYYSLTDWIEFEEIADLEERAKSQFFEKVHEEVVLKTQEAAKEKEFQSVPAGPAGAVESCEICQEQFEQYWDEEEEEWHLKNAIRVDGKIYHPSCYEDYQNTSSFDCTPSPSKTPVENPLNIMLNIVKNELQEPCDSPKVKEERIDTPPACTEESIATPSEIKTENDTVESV
UniProt Q9UJV9: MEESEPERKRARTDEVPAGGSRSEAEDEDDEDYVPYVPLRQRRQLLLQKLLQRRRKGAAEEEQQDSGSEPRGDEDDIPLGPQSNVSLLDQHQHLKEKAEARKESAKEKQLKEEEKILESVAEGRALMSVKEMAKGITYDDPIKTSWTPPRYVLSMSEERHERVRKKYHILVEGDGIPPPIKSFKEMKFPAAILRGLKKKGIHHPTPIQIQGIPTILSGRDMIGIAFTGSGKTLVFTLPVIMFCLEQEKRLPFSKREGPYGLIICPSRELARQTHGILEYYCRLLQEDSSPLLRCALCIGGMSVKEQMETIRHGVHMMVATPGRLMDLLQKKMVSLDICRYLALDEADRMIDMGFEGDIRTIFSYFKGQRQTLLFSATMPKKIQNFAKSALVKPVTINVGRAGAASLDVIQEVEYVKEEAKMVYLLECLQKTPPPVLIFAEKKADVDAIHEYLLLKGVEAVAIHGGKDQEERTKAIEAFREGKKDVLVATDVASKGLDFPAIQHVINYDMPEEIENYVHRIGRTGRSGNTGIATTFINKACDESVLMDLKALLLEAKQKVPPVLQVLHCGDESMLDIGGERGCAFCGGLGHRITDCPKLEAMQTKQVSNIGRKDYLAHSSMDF
UniProt O75152: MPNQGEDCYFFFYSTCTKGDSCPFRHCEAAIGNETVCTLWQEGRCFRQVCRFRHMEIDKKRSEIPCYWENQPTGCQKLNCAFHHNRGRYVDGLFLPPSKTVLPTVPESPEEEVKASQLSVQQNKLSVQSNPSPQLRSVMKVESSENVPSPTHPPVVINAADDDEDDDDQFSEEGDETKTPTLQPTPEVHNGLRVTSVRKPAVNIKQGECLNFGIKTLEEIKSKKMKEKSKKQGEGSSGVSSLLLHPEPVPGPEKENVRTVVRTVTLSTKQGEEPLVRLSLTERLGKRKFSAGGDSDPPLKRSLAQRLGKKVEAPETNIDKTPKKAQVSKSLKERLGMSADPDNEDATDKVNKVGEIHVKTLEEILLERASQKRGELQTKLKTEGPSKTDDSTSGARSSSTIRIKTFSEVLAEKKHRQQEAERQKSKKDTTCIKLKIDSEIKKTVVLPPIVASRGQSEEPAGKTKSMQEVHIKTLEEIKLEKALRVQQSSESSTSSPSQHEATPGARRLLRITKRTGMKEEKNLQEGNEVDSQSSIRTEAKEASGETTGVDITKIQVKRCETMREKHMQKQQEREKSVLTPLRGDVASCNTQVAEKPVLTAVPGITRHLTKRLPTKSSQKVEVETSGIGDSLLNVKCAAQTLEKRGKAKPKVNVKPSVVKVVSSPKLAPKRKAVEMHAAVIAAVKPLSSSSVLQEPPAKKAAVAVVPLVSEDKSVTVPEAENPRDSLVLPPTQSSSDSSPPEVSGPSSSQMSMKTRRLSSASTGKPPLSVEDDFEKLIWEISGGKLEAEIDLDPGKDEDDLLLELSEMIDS

T1: PPIL4, miniTurbo-tagged bait for reciprocal BioID (human) (UniProt Q8WUA2)
T1 sequence: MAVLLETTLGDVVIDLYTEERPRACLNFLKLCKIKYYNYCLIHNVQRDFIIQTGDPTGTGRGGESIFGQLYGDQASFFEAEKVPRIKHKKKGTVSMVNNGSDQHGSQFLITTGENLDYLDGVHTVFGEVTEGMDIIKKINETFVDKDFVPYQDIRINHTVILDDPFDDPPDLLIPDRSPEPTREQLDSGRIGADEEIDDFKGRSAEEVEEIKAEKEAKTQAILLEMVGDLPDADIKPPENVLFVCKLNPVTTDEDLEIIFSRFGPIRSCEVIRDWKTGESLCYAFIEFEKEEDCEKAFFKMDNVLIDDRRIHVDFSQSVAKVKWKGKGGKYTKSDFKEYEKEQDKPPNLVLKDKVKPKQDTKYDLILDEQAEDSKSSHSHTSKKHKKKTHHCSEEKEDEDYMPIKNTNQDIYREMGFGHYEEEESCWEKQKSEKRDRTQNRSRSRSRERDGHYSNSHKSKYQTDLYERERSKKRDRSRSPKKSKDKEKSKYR

T2: PAXBP1, miniTurbo-tagged bait for reciprocal BioID (human) (UniProt Q9Y5B6)
T2 sequence: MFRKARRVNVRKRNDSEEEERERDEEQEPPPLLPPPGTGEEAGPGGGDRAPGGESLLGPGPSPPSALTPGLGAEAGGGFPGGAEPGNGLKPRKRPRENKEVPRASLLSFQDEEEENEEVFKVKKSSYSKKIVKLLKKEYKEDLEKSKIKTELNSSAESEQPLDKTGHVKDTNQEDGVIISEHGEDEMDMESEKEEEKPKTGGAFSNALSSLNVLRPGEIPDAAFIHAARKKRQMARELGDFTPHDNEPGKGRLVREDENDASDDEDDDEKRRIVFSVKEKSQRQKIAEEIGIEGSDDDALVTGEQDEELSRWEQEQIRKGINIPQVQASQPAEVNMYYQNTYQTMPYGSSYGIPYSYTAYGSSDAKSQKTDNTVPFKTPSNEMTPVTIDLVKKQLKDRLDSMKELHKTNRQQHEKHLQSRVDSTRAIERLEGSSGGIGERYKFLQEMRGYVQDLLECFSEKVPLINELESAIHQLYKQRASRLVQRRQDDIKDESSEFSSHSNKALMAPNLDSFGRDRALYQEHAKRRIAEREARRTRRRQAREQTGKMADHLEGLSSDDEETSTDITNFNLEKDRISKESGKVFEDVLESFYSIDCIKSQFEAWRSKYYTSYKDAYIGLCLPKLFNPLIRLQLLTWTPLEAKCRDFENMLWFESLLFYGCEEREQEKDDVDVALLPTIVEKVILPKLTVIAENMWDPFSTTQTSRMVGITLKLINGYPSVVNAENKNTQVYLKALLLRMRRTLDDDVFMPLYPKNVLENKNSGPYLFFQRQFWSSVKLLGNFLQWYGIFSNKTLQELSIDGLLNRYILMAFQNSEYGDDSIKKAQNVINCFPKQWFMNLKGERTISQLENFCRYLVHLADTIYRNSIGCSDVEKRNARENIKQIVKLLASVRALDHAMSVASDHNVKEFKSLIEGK

T3: C19ORF47, miniTurbo-tagged bait for reciprocal BioID (human) (UniProt Q8N9M1)
T3 sequence: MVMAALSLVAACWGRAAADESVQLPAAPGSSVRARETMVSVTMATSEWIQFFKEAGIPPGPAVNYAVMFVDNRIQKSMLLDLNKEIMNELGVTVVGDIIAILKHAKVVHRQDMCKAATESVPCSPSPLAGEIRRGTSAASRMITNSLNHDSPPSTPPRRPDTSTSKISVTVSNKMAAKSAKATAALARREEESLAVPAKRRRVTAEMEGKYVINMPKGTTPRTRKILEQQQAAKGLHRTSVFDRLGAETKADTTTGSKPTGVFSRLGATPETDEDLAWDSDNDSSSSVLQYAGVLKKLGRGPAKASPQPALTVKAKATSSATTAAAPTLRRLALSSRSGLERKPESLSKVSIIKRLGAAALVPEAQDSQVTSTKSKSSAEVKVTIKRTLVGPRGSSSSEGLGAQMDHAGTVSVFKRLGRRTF

B1: RPRD1B (endogenous prey) (protein, UniProt Q9NQG5 1-326)
chain: MSSFSESALEKKLSELSNSQQSVQTLSLWLIHHRKHAGPIVSVWHRELRKAKSNRKLTFLYLANDVIQNSKRKGPEFTREFESVLVDAFSHVAREADEGCKKPLERLLNIWQERSVYGGEFIQQLKLSMEDSKSPPPKATEEKKSLKRTFQQIQEEEDDDYPGSYSPQDPSAGPLLTEELIKALQDLENAASGDATVRQKIASLPQEVQDVSLLEKITDKEAAERLSKTVDEACLLLAEYNGRLAAELEDRRQLARMLVEYTQNQKDVLSEKEKKLEEYKQKLARVTQVRKELKSHIQSLPDLSLLPNVTGGLAPLPSAGDLFSTD
B2: FYTTD1 (protein, UniProt Q96QD9 1-318)
chain: MNRFGTRLVGATATSSPPPKARSNENLDKIDMSLDDIIKLNRKEGKKQNFPRLNRRLLQQSGAQQFRMRVRWGIQQNSGFGKTSLNRRGRVMPGKRRPNGVITGLAARKTTGIRKGISPMNRPPLSDKNIEQYFPVLKRKANLLRQNEGQRKPVAVLKRPSQLSRKNNIPANFTRSGNKLNHQKDTRQATFLFRRGLKVQAQLNTEQLLDDVVAKRTRQWRTSTTNGGILTVSIDNPGAVQCPVTQKPRLTRTAVPSFLTKREQSDVKKVPKGVPLQFDINSVGKQTGMTLNERFGILKEQRATLTYNKGGSRFVTVG
B3: NCBP3 (protein, UniProt Q53F19 1-620)
chain: MAAVRGLRVSVKAEAPAGPALGLPSPEAESGVDRGEPEPMEVEEGELEIVPVRRSLKELIPDTSRRYENKAGSFITGIDVTSKEAIEKKEQRAKRFHFRSEVNLAQRNVALDRDMMKKAIPKVRLETIYICGVDEMSTQDVFSYFKEYPPAHIEWLDDTSCNVVWLDEMTATRALINMSSLPAQDKIRSRDASEDKSAEKRKKDKQEDSSDDDEAEEGEVEDENSSDVELDTLSQVEEESLLRNDLRPANKLAKGNRLFMRFATKDDKKELGAARRSQYYMKYGNPNYGGMKGILSNSWKRRYHSRRIQRDVIKKRALIGDDVGLTSYKHRHSGLVNVPEEPIEEEEEEEEEEEEEEEEDQDMDADDRVVVEYHEELPALKQPRERSASRRSSASSSDSDEMDYDLELKMISTPSPKKSMKMTMYADEVESQLKNIRNSMRADSVSSSNIKNRIGNKLPPEKFADVRHLLDEKRQHSRPRPPVSSTKSDIRQRLGKRPHSPEKAFSSNPVVRREPSSDVHSRLGVPRQDSKGLYADTREKKSGNLWTRLGSAPKTKEKNTKKVDHRAPGAEEDDSELQRAWGALIKEKEQSRQKKSRLDNLPSLQIEVSRESSSGSEAES
B4: POLDIP3 (protein, UniProt Q9BY77 1-421)
chain: MADISLDELIRKRGAAAKGRLNARPGVGGVRSRVGIQQGLLSQSTRTATFQQRFDARQKIGLSDARLKLGVKDAREKLLQKDARFRIKGKVQDAREMLNSRKQQTTVPQKPRQVADAREKISLKRSSPAAFINPPIGTVTPALKLTKTIQVPQQKAMAPLHPHPAGMRINVVNNHQAKQNLYDLDEDDDGIASVPTKQMKFAASGGFLHHMAGLSSSKLSMSKALPLTKVVQNDAYTAPALPSSIRTKALTNMSRTLVNKEEPPKELPAAEPVLSPLEGTKMTVNNLHPRVTEEDIVELFCVCGALKRARLVHPGVAEVVFVKKDDAITAYKKYNNRCLDGQPMKCNLHMNGNVITSDQPILLRLSDSPSMKKESELPRRVNSASSSNPPAEVDPDTILKALFKSSGASVTTQPTEFKIKL

Experiments:
Assay in all cases: proximity labelling
[1] = biological target: T1, PPIL4, miniTurbo-tagged bait for reciprocal BioID (human)
[2] = biological target: T2, PAXBP1, miniTurbo-tagged bait for reciprocal BioID (human)
[3] = biological target: T3, C19ORF47, miniTurbo-tagged bait for reciprocal BioID (human)

Molecule | binding [3] | further results
PCF11 (from UniProt O94913 1-1555) |  | binding [1]: binds
DDX41 (from UniProt Q9UJV9 1-622) |  | binding [2]: binds
ZC3H11A (from UniProt O75152 1-810) | binds | 
B1 |  | binding [1]: binds
B2 | binds | 
B3 | binds | 
B4 | binds | 

No constants are given. Whether binding was seen depends on the method and setting. Binding seen in cells or lysates may run through a third protein. A yes stands for co-enrichment or nearness to the bait. Other partners may have been found. Where a sequence is shown, tags or fusion partners need not be part of it.
